No constants are given. Whether binding was seen depends on the method and setting. Binding calls can cover weak binding; strength is not graded here.

These results are taken from patent US20250152759A1, “SINGLE-DOMAIN ANTIBODIES AND VARIANTS THEREOF AGAINST MET” (Wisconsin Alumni Research Foundation, priority 2023, published 2025).

For assay [1], the target named is rhesus macaque MET (biotinylated) (rhesus macaque). Kind of assay: dilution ELISA, unpurified VHH on plates coated with rhesus macaque MET. (In general: ELISA stands for enzyme-linked immunosorbent assay.)
For assay [2] the target is unchanged. Description: ELISA counter screen.
Assay [3] has the same target. Kind of assay: dilution ELISA, unpurified VHH on coated MET.

B1: 1E7 VHH (VHH)
VHH: EVQLVESGGGLVQPGGSLRLSCEASGFNFERYDMSWVRQAPGKGPEWVSRLNSFGRSTYYLDSVKGRFTVSRDNAQNMLYLQMNNLKPEDTAVYYCARSTDVSPGLSSWWTYEYDVWGQGTQVTVSS
Take B1: the binding entry in assay [1], in assay [2] and in assay [3] was “binds” in each case.

B2: 1A2 VHH (VHH)
VHH: EAQLVESGGGLVQPGGSLRLSCEASGFNFERYDMSWVRQAPGKGPEWVSRLNSFGRSTYYLDSVKGRFTVSRDTAKSTFYLQMNNLKPEDAGVYYCARSTDVSPGLSSWWTYEYDVWGQGTQVTVSS
Turning to B2, the binding entry in assay [1] and in assay [2] was “binds” in each case.

B3: 2G9 VHH (VHH)
VHH: EVQLVESGGALVQPGGSLRLSCAASGFTFGAYDMVWVRHATGKGPEWISFISNGGEEVSYASSVKDRFTISRDNAQNMLYLQMNNLKPEDTAVYYCARSTDVSPGLSSWWTYEYDVWGQGTLVTVSS
Consider B3, for which the binding entry in assay [1] and in assay [2] was “binds” throughout.
